Experimental data: PubChem BioAssay AID1259254 (NCATS, 2017)

Assay: 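Finding genes that stop cells copying their DNA twice in one cycle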 (primary screen)
Cells: human HCT116 colorectal cancer cells
Knock-down reagent: single siRNA against human genes
Duration: 3 days
Measurement: 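Imaged Hoechst DNA stain sorts each cell into a cycle phase by DNA amount; per plate, G2 fraction set to 0% for non-targeting and 100% for GMNN siRNA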
Scale: G2 robust z-score and G2 cells, % of GMNN control: higher = more G2 cells, more excess DNA replication; raw share of cells in G2: higher = larger share of cells with G2 DNA content
Call rule: 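An siRNA counts as active if its G2 robust z-score lies at least 5 MADs above the screen median; here such calls match roughly 38% of GMNN control or more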
The deposit covers about 59,000 reagents; below is a part drawn at random. About 1,550 of them (2.6%) were called active. 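G2 share is only a proxy for re-replication; each gene was hit by three separate siRNAs, and active genes were retested.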 Raw values vary from plate to plate and are shown uncorrected. The numbers tell different reagents against one gene apart. Not stated in the record: the amount of reagent.

| target | siRNA no. | G2 robust z-score | G2 cells, % of GMNN control | raw share of cells in G2 (%) | Call |
| --- | --- | --- | --- | --- | --- |
| TIMMDC1 | 1 | 0.0359 | 3.22 | 4.76 | inactive |
| TIMMDC1 | 2 | -0.569 | -1.04 | 3.83 | inactive |
| TIMMDC1 | 3 | 2.02 | 17.2 | 8.88 | inactive |
| FAM181A | 1 | 1.22 | 11.6 | 6.59 | inactive |
| FAM181A | 2 | -0.3 | 0.858 | 4.45 | inactive |
| FAM181A | 3 | -0.849 | -3.01 | 2.06 | inactive |
| ACBD7 | 1 | -0.531 | -0.772 | 4 | inactive |
| ACBD7 | 2 | -0.453 | -0.223 | 4.87 | inactive |
| ACBD7 | 3 | -0.887 | -3.27 | 4.49 | inactive |
| ZNF461 | 1 | 0.822 | 8.75 | 6.1 | inactive |
| ZNF461 | 2 | -0.0784 | 2.42 | 4 | inactive |
| ZNF461 | 3 | -0.74 | -2.24 | 2.74 | inactive |
| MYO5A | 1 | -0.0665 | 2.5 | 6.46 | inactive |
| MYO5A | 2 | -0.802 | -2.68 | 2.31 | inactive |
| MYO5A | 3 | 0.533 | 6.72 | 7.96 | inactive |
| SAAL1 | 1 | 0.917 | 9.42 | 10 | inactive |
| SAAL1 | 2 | -0.432 | -0.0716 | 4.94 | inactive |
| SAAL1 | 3 | 0.00981 | 3.04 | 5.63 | inactive |
| TPRKB | 1 | 1.21 | 11.5 | 6.87 | inactive |
| TPRKB | 2 | -0.218 | 1.43 | 4.4 | inactive |
| TPRKB | 3 | 0.0408 | 3.25 | 5.78 | inactive |
| ZNF229 | 1 | -0.575 | -1.07 | 3.17 | inactive |
| ZNF229 | 2 | -0.14 | 1.98 | 6.87 | inactive |
| ZNF229 | 3 | 0.918 | 9.42 | 7.29 | inactive |
| LMBR1 | 1 | 1.81 | 15.7 | 12.2 | inactive |
| LMBR1 | 2 | 1.58 | 14.1 | 9.34 | inactive |
| LMBR1 | 3 | -0.327 | 0.668 | 4.47 | inactive |
| WDR1 | 1 | 6.2 | 46.6 | 19.1 | active |
| WDR1 | 2 | 0.266 | 4.84 | 7.03 | inactive |
| WDR1 | 3 | 4.24 | 32.8 | 18.1 | inactive |
| ZNF711 | 1 | -0.191 | 1.62 | 4.07 | inactive |
| ZNF711 | 2 | -0.152 | 1.9 | 6.83 | inactive |
| ZNF711 | 3 | -0.409 | 0.0868 | 3.38 | inactive |
| SYNPO | 1 | 1.26 | 11.8 | 9.62 | inactive |
| SYNPO | 2 | 1.25 | 11.7 | 8.98 | inactive |
| SYNPO | 3 | -0.192 | 1.62 | 3.78 | inactive |
| SNRPEP2 | 1 | 0.868 | 9.07 | 7.11 | inactive |
| SNRPEP2 | 2 | 0.625 | 7.37 | 6.44 | inactive |
| SNRPEP2 | 3 | 1.43 | 13 | 10.2 | inactive |
| ZNF804A | 1 | -0.118 | 2.14 | 4.99 | inactive |
| ZNF804A | 2 | 1.05 | 10.4 | 6.25 | inactive |
| ZNF804A | 3 | 0.23 | 4.59 | 4.38 | inactive |
| AKAP17A | 1 | -0.909 | -3.43 | 2.98 | inactive |
| AKAP17A | 2 | 0.574 | 7.01 | 7.72 | inactive |
| AKAP17A | 3 | 2.05 | 17.4 | 10.9 | inactive |
| LIX1L | 1 | -0.958 | -3.77 | 2.75 | inactive |
| LIX1L | 2 | 1.22 | 11.5 | 6.76 | inactive |
| LIX1L | 3 | 0.666 | 7.65 | 5.35 | inactive |
| ECE2 | 1 | -0.522 | -0.709 | 5.31 | inactive |
| ECE2 | 2 | 0.0403 | 3.25 | 6.06 | inactive |
| ECE2 | 3 | -0.885 | -3.26 | 2.69 | inactive |
| ECE2 | 4 | 0.309 | 5.14 | 5.82 | inactive |
| ECE2 | 5 | 3.63 | 28.5 | 11.9 | inactive |
| ECE2 | 6 | 0.839 | 8.87 | 5.09 | inactive |
| TLR5 | 1 | 1.12 | 10.8 | 9.23 | inactive |
| TLR5 | 2 | -0.711 | -2.04 | 4.09 | inactive |
| TLR5 | 3 | -0.708 | -2.01 | 3.59 | inactive |
| SH2B3 | 1 | 0.19 | 4.3 | 7.27 | inactive |
| SH2B3 | 2 | 0.0326 | 3.2 | 5.28 | inactive |
| SH2B3 | 3 | -0.714 | -2.06 | 2.66 | inactive |
| ECT2 | 1 | 5.63 | 42.6 | 20.7 | active |
| ECT2 | 2 | 4.93 | 37.6 | 19.6 | inactive |
| ECT2 | 3 | 8.77 | 64.7 | 26.7 | active |
| LOXL3 | 1 | -0.265 | 1.1 | 5.2 | inactive |
| LOXL3 | 2 | 0.0201 | 3.11 | 6.72 | inactive |
| LOXL3 | 3 | 0.277 | 4.91 | 5.97 | inactive |
| MTMR6 | 1 | 5.93 | 44.7 | 19.3 | active |
| MTMR6 | 2 | 0.616 | 7.3 | 6.5 | inactive |
| MTMR6 | 3 | -0.887 | -3.27 | 2.51 | inactive |

9 of these entries in another layout:
SYNPO #3
- G2 robust z-score: -0.192
- G2 cells, % of GMNN control: 1.62
- raw share of cells in G2 (%): 3.78
- Call: inactive

SNRPEP2 #1
- G2 robust z-score: 0.868
- G2 cells, % of GMNN control: 9.07
- raw share of cells in G2 (%): 7.11
- Call: inactive

SNRPEP2 #2
- G2 robust z-score: 0.625
- G2 cells, % of GMNN control: 7.37
- raw share of cells in G2 (%): 6.44
- Call: inactive

SNRPEP2 #3
- G2 robust z-score: 1.43
- G2 cells, % of GMNN control: 13
- raw share of cells in G2 (%): 10.2
- Call: inactive

ZNF804A #1
- G2 robust z-score: -0.118
- G2 cells, % of GMNN control: 2.14
- raw share of cells in G2 (%): 4.99
- Call: inactive

ZNF804A #2
- G2 robust z-score: 1.05
- G2 cells, % of GMNN control: 10.4
- raw share of cells in G2 (%): 6.25
- Call: inactive

ZNF804A #3
- G2 robust z-score: 0.23
- G2 cells, % of GMNN control: 4.59
- raw share of cells in G2 (%): 4.38
- Call: inactive

AKAP17A #1
- G2 robust z-score: -0.909
- G2 cells, % of GMNN control: -3.43
- raw share of cells in G2 (%): 2.98
- Call: inactive

AKAP17A #2
- G2 robust z-score: 0.574
- G2 cells, % of GMNN control: 7.01
- raw share of cells in G2 (%): 7.72
- Call: inactive
